Legend:
Type in all cases: cell-based
[1] = target: human dopamine transporter (hDAT) (Homo sapiens, UniProt Q01959); assay: Neurotransmitter transporter uptake assay, HEK-hDAT; settings: read-out: % Inhibition at 10 μM hDAT
[2] = target: human serotonin transporter (hSERT) (Homo sapiens, UniProt P31645); assay: Neurotransmitter transporter uptake assay, HEK-hSERT; settings: read-out: % Inhibition at 10 μM hSERT
[3] = target: human norepinephrine transporter (hNET) (Homo sapiens, UniProt P23975); assay: Neurotransmitter transporter uptake assay, HEK-hNET; settings: read-out: % Inhibition at 10 μM hNET

The chains behind the UniProt entries cited, without tags or fusion partners.
UniProt Q01959, whole entry: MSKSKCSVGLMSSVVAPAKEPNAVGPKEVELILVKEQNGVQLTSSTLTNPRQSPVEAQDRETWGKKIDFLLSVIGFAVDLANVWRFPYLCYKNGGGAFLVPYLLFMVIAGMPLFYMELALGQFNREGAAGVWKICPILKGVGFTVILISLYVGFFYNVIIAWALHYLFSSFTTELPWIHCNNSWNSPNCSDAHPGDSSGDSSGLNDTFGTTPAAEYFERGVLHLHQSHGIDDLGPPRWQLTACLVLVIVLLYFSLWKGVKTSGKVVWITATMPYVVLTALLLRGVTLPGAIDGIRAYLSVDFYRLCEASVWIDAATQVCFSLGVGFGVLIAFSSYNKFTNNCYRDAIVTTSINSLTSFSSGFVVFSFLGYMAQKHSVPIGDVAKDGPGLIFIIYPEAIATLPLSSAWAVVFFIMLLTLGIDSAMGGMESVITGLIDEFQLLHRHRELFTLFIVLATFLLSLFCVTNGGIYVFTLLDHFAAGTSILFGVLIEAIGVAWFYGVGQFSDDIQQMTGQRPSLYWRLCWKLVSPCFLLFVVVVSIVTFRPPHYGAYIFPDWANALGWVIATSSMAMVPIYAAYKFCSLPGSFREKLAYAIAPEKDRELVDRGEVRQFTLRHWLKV
UniProt P31645, whole entry: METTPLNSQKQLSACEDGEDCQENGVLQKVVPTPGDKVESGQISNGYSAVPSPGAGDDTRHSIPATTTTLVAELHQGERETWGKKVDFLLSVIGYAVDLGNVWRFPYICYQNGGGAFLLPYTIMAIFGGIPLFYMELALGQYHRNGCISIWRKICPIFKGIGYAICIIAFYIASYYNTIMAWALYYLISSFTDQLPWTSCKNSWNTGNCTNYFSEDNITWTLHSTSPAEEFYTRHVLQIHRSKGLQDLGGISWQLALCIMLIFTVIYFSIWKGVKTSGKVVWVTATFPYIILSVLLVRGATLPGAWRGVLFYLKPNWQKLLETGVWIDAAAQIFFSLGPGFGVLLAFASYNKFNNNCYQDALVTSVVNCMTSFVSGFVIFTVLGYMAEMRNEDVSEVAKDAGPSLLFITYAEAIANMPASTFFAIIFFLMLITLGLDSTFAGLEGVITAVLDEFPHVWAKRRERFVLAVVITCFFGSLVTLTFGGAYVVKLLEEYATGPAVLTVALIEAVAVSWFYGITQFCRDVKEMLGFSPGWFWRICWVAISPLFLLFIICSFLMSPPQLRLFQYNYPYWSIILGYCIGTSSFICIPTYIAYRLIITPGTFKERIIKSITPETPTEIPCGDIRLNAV
UniProt P23975, whole entry: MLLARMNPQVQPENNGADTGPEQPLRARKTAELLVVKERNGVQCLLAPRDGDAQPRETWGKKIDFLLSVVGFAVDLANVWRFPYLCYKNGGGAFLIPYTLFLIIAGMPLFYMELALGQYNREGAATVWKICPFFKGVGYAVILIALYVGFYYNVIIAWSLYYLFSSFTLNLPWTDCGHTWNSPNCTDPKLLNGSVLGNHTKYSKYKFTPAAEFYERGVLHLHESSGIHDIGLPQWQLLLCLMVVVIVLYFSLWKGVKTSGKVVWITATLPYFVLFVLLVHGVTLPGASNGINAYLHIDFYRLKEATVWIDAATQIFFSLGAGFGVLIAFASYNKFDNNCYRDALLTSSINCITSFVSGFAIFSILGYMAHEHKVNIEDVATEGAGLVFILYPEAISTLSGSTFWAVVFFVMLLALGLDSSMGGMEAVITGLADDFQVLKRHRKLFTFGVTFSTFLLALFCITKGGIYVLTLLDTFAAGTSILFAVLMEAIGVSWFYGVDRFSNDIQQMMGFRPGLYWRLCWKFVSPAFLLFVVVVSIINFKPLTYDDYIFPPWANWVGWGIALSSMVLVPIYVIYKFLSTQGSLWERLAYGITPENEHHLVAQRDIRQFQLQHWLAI

With `CN1c2ccccc2C(NCCCCCCC(=O)O)c2ccc(Cl)cc2S1(=O)=O` (stereo not drawn) [Tianeptine, reference compound] the inhibition at 10 µM [1] was 20.3 ± 6.2%, the inhibition at 10 µM [2] was 16.6 ± 10% and the inhibition at 10 µM [3] was 27.2 ± 6.2%.
